The data set can be described thus: general procedure: Fmoc solid-phase peptide synthesis; 2-chlorotrityl chloride resin; DIC/HOBt (HOAt for hindered couplings); HATU, TBTU, DMTMM with DIPEA for macrocy. The following applies: whole synthesis, overall.

HELM strings list residues between dots; [ac] is acetyl, [am] amide, other brackets name non-standard units.

The record followed here is article PMC6407599 (Journal of Enzyme Inhibition and Medicinal Chemistry, 2019).

For the substance “PEPTIDE1{[Lys(Cbz)].N.[Ser(Ac)].[Tyr(Ac)].A}$PEPTIDE1,PEPTIDE1,1:R1-5:R2$$$V2.0”, the isolated yield is listed as 28% overall. With “PEPTIDE1{[Lys(Cbz)].N.[Ser(Ac)].[Tyr(Ac)].F}$PEPTIDE1,PEPTIDE1,1:R1-5:R2$$$V2.0” the figure was 24% overall.
